Like-named read-outs stand apart in the source and are kept apart here. Some entries share one result that the patent states for a list of compounds.
Legend:
Assay type in all cases: in vivo
Phytophthora infestans [1] = settings: 200 ppm; tomato leaf disks, inoculated 1 day after application, assessed 5-7 days after application
Plasmopara viticola [2] = test: Plasmopara viticola/Grape/Leaf Disc Preventative (Grape Downy Mildew); settings: 200 ppm; grape vine leaf disks, inoculated 1 day after application, assessed 6-8 days after application
Phytophthora infestans [3] = settings: 200 ppm; potato plants cv. Bintje, inoculated one day before application, assessed 3-4 days after application
Phytophthora infestans [4] = settings: 200 ppm; potato plants cv. Bintje, inoculated 2 days after application, assessed 5-7 days after application
Phytophthora infestans [5] = settings: 200 ppm; potato plants cv. Bintje, inoculated 6 days after application, assessed 9-11 days after application
Plasmopara viticola [6] = test: Plasmopara viticola/Grape/Preventative (Grape Downy Mildew); settings: 200 ppm; grape seedlings cv. Gutedel, inoculated one day after application, assessed 6-8 days after application
Plasmopara viticola [7] = test: Plasmopara viticola/Grape/Long Lasting (Grape Downy Mildew); settings: 200 ppm; grape seedlings cv. Gutedel, inoculated 6 days after application, assessed 11-13 days after application

Cc1cc(C(F)(F)F)nn1CC(=O)N(C)CCCc1nc(C(=O)N(C)[C@@H]2CCCc3ccccc32)cs1 [Compound I.d.55, 2-(3-{methyl-[2-(5-methyl-3-trifluoromethyl-pyrazol-1-yl)-acetyl]-amino}-propyl)-thiazole-4-carboxylic acid methyl-(R)-1,2,3,4-tetrahydro-naphthalen-1-yl-amide]
disease control (Phytophthora infestans [1]): at least 80% | disease control (Plasmopara viticola [2]): at least 70% | disease control (Phytophthora infestans [3]): at least 80% | disease control (Phytophthora infestans [4]): at least 80% | disease control (Phytophthora infestans [5]): at least 60% | disease control (Plasmopara viticola [6]): at least 80% | disease control (Plasmopara viticola [7]): at least 80%
